# Reference: paper PMC12286842
# Protein sequences, listed by entry. Tags and fused reporters are not part of them. Lines headed by an entry give the natural chain unless they say otherwise; changes in a name come on top.
# UniProt Q9P0J7: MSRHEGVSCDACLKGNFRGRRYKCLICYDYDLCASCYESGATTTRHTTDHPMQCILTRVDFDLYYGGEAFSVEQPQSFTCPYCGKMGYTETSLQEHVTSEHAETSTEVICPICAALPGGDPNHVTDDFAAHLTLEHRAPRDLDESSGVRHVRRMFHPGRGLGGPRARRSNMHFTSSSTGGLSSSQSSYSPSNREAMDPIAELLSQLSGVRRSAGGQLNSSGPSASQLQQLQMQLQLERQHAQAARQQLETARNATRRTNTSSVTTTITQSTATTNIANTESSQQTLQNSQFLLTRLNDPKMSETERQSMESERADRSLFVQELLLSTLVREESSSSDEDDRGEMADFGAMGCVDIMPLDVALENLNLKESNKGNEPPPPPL
# UniProt Q9NUJ1: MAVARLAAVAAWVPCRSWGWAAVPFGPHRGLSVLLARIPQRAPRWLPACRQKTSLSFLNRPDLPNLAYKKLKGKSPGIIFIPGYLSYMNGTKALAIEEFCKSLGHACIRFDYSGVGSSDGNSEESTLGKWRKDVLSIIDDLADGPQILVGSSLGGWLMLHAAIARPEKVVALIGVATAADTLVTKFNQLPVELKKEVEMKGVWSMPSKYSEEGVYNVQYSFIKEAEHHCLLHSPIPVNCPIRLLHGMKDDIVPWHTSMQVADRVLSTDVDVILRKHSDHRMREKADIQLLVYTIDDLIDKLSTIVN
# These are yes or no findings as the source states them, for the method shown. Binding seen in cells or lysates may run through a third protein. For part of these data: Binding can be weak; no strength is given.
# Key:
# [1] = molecular target: KCMF1–3×Flag (wild type) (human) (UniProt Q9P0J7); test: co-IP; anti-Flag M2 affinity purification of KCMF1–Flag variants from cell lysate (40 mM HEPES 7.5, 150 mM NaCl, 0.1% NP-40), Western blot for endogenous UBR4, ABHD10 or ABHD10^HA
# [2] = molecular target: KCMF1–3×Flag (wild type) (human) (UniProt Q9P0J7); test: co-IP; KCMF1–Flag immunoprecipitation from ΔUBR4 HEK293T cells, blot for ABHD10–HA
# KCMF1–Flag ΔZZ (human) = KCMF1–Flag ΔZZ (human) (UniProt Q9P0J7); test: as above
substance,measurement,setting,value
ABHD10–3×HA (from UniProt Q9NUJ1),binding,[1],binds
same,binding,[2],binds
same,binding,KCMF1–Flag ΔZZ (human),no binding
